Test results taken from the supplement of paper PMC10849652.
The other results are listed elsewhere or left out. Residues, ends and D or L forms follow the SMILES beside them. *: point of attachment. Cbz = O=C(OCc1ccccc1)*

The chains behind the UniProt entries cited, without tags or fusion partners. Where a name states a change or a piece, a line headed by the entry shows the natural chain unless it says otherwise.
UniProt Q5JUR7: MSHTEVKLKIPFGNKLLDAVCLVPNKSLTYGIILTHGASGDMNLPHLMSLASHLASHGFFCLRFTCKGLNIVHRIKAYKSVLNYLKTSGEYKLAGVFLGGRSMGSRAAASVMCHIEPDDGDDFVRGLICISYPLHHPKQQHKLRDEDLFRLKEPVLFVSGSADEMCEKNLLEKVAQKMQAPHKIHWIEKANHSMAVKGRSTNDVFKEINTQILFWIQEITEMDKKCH
UniProt Q13428: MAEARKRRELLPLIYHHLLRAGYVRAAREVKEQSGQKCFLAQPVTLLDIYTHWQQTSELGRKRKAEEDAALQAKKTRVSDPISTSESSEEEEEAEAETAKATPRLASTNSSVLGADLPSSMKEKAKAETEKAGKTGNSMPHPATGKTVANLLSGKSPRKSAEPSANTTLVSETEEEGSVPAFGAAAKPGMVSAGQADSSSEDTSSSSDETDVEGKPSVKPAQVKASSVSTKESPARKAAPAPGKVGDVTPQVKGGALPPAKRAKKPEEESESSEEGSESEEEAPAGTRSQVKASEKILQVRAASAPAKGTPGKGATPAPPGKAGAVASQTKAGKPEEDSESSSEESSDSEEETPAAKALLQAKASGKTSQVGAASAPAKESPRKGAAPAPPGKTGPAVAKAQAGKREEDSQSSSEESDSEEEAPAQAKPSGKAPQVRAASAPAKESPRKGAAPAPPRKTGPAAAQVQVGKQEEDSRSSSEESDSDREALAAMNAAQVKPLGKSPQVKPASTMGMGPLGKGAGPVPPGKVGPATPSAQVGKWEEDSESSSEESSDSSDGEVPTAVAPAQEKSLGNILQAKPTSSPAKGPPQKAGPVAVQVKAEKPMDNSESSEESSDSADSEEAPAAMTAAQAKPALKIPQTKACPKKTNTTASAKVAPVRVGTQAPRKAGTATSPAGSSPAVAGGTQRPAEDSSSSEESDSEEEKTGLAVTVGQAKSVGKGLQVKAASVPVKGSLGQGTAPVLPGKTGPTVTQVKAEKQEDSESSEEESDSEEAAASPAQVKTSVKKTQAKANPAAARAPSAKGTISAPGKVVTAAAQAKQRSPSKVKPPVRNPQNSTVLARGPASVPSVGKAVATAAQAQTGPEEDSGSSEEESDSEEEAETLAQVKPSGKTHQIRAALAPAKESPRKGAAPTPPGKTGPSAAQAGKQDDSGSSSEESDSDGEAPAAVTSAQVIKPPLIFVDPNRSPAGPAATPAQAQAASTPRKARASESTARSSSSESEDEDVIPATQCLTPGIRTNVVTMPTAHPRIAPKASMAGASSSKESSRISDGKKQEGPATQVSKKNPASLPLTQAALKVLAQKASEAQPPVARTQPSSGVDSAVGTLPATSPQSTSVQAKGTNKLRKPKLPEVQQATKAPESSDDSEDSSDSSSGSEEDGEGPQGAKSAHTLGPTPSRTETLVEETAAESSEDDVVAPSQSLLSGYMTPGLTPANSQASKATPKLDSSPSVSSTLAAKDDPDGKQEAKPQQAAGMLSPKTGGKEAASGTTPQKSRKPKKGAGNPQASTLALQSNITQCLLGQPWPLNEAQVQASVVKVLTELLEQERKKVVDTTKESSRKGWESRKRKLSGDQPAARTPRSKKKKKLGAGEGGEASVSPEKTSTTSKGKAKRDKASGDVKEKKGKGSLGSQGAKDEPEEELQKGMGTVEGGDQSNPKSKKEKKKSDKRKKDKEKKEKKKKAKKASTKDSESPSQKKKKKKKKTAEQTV
UniProt Q66K14, whole entry, looked up: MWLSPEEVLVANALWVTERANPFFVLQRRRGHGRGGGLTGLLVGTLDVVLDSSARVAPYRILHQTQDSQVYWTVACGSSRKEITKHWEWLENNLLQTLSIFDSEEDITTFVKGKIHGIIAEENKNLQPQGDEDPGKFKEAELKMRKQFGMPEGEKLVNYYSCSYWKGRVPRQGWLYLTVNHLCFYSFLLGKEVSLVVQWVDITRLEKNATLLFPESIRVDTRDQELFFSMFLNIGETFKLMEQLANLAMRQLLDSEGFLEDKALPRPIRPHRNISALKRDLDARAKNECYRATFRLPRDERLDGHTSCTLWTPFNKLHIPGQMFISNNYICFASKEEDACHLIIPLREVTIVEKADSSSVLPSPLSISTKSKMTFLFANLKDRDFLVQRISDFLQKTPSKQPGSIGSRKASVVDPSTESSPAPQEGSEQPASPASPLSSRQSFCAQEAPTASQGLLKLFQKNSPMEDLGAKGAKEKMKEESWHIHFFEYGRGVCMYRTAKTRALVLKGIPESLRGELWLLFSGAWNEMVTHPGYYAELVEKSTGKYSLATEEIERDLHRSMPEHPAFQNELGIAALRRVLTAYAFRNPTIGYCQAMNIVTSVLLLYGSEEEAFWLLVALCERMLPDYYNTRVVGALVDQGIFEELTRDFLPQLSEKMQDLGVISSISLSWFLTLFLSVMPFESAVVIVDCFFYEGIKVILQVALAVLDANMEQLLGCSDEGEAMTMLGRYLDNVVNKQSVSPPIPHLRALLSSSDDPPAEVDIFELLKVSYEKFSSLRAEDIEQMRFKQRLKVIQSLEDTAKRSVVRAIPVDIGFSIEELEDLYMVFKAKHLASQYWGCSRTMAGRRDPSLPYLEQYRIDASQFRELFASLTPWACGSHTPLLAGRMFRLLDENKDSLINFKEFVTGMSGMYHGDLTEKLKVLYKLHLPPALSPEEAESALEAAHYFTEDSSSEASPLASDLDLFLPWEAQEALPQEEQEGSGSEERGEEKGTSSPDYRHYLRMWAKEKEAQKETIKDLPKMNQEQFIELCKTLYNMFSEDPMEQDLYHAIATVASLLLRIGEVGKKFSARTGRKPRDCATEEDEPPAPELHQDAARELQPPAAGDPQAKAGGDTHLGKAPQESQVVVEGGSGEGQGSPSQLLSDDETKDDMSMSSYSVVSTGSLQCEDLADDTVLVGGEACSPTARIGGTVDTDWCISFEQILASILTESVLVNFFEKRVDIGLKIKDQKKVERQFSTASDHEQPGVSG
UniProt P10646, whole entry, looked up: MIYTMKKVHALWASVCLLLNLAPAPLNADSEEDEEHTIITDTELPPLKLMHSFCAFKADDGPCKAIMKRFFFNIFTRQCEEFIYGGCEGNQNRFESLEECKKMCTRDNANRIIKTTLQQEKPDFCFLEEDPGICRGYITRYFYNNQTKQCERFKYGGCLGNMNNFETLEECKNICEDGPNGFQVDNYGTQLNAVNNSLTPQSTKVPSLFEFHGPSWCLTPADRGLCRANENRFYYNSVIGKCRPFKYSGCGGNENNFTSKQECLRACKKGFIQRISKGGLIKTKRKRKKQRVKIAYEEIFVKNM
UniProt Q15582: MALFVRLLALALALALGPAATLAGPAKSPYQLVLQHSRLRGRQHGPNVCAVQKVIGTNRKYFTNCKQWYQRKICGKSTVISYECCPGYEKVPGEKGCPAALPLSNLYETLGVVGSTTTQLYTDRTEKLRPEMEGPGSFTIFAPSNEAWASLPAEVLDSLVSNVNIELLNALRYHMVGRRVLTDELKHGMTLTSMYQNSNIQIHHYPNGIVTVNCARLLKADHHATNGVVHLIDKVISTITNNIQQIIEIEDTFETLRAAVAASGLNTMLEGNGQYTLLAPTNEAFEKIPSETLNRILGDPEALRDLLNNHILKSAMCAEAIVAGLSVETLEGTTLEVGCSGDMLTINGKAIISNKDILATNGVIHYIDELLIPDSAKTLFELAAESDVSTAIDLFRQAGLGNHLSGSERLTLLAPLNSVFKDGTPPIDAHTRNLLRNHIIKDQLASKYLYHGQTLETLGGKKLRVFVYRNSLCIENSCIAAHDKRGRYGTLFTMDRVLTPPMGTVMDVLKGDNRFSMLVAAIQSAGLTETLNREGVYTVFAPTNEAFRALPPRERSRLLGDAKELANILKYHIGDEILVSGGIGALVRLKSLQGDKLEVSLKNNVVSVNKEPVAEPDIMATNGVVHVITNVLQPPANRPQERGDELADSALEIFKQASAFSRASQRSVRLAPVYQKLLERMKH
UniProt Q9BU02: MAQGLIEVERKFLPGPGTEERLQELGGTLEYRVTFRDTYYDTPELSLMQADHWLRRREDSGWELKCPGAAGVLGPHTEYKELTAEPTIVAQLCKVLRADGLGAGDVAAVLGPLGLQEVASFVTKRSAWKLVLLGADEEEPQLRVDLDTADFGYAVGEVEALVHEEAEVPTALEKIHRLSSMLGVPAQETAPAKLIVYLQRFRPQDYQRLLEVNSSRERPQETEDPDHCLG
UniProt Q9P2M4: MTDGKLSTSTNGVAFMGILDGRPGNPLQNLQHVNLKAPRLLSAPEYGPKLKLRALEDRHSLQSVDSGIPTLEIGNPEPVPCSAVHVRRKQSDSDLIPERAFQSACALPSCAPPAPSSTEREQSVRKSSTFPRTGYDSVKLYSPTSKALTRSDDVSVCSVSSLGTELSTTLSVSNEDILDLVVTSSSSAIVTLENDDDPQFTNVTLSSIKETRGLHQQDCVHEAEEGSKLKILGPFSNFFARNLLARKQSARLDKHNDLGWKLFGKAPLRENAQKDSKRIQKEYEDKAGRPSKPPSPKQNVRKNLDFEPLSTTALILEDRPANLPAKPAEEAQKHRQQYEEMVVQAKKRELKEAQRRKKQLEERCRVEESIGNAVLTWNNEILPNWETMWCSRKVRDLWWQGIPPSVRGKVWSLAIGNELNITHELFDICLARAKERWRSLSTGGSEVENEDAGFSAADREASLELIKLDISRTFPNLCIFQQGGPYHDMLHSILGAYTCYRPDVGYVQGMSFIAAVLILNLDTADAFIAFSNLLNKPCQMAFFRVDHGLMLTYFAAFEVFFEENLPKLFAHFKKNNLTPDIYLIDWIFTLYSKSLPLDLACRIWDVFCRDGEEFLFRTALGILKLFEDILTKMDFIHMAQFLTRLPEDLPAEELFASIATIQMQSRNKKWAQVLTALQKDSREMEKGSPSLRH
UniProt P19532: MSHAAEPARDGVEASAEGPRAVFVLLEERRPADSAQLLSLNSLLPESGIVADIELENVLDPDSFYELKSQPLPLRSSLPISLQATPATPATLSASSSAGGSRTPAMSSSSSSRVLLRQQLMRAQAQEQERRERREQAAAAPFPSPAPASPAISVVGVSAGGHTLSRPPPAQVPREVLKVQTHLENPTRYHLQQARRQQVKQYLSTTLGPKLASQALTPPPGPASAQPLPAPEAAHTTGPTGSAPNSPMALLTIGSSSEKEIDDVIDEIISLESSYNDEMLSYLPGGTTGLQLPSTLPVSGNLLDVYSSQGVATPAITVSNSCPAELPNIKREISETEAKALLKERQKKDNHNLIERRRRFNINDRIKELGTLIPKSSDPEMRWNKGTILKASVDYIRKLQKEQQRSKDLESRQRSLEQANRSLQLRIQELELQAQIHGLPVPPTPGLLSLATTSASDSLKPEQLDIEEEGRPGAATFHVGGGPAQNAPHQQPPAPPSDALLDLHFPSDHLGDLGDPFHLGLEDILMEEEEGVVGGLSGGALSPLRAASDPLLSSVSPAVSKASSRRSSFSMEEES
UniProt Q96BZ9: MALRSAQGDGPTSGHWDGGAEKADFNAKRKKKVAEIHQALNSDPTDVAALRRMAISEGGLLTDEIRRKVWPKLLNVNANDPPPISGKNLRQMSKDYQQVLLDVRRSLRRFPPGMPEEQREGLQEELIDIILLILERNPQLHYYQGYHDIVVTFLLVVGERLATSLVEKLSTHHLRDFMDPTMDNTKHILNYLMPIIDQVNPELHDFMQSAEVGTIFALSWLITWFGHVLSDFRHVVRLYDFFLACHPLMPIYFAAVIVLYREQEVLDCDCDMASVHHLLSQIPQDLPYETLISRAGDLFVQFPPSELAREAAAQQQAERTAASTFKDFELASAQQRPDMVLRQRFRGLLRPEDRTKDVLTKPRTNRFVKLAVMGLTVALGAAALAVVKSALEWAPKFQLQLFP

Columns and labels:
Experiment in all cases: log2 fold change, soluble protein after heating vs DMSO (PISA); higher = thermal stabilisation; K562 cells, 10 uM, 30 min; active = over 0.2 and 3.5 SD of the protein, either way, in both replicates (recomputed)
erlotinib = compound: C#Cc1cccc(Nc2ncnc3cc(OCCOC)c(OCCOC)cc23)c1 [erlotinib]
Outline: (§1)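 Soluble protein was quantified by TMTpro 16plex LC-MS/MS after channel sums were equalised. It was obtained as the supernatant after 21,000xg for 90 min from pooled aliquots of K562 cells (2×10^6 cells/mL, 10 μM compound, 30 min) heated for 3 min across 48°C-58°C and extracted in PBS with 0.5% NP-40 at 4°C. Thermal stability values are relative to control samples and come from duplicates. They are given as log2 fold changes.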

[1] = compound: C/C(=N\NC(=O)C1=CC(=CC=C1)S(=O)(=O)N2CCOCC2)/C3=C(C=CC(=C3)Cl)O
Outline: as §1

[2] = compound: C1=CC(=C(C=C1Cl)C2=NC3=NC=CN=C3C(=N2)NC4=CC=NC=C4)F
Outline: as §1

[3] = compound: C1=CC(=CC=C1C2=NC3=C(N2)C=C(C=C3)C(=O)N)OC4=CC=C(C=C4)Cl
Outline: as §1

[4] = compound: C1=CC2=C(C=CC(=C2)/C=C\3/C(=O)NC(=NCC4=CC=CS4)S3)N=C1
Outline: as §1

[5] = compound: C1=CC2=NC=CN=C2C=C1/C=C/3\C(=O)NC(=O)S3
Outline: as §1

[6] = compound: C1=CC=C(C=C1)C2=NC(=C(N2)C3=CC=NC=C3)C4=CC(=C(C=C4)Cl)O
Outline: as §1

[7] = compound: C1=CC=C2C(=C1)C3=NNC4=CC=CC(=C43)C2=O
Outline: as §1

[8] = compound: C1CCN(C1)C(=O)NC2=CC=CC(=C2)NC3=NC=C(C(=N3)NCCC4=CN=CN4)Br
Outline: as §1

[9] = compound: C1CN(CCC1(CC2=CC=C(C=C2)Cl)N)C3=NC=NC4=C3C=CN4
Outline: as §1

IRAK-1-4 Inhibitor I = compound: C1COCCN1CCN2C3=CC=CC=C3N=C2NC(=O)C4=CC(=CC=C4)[N+](=O)[O-] [IRAK-1-4 Inhibitor I]
Outline: as §1

ibrutinib = compound: C=CC(=O)N1CCC[C@@H](n2nc(-c3ccc(Oc4ccccc4)cc3)c3c(N)ncnc32)C1 [ibrutinib]
Outline: as §1

[10] = compound: CC(=O)c1cnc2ccc(-c3cc(Cl)c(O)c(Cl)c3)nc2c1N[C@H]1CC[C@H](CN(C)C)CC1
Outline: as §1

ralimetinib = compound: CC(C)(C)Cn1c(N)nc2ccc(-c3[nH]c(C(C)(C)C)nc3-c3ccc(F)cc3)nc21 [ralimetinib]
Outline: as §1

[11] = compound: CC(C)(O)CC(=O)NCCn1ccc2ncnc(Nc3ccc(Oc4cccc(C(F)(F)F)c4)c(Cl)c3)c21
Outline: as §1

[12] = compound: CC(C)C1=C2N=C(C=C(N2N=C1)NCC3=CC=CC=C3)NCCCCCCN
Outline: as §1

[13] = compound: CC(C)C[C@@H](C=O)NC(=O)[C@H](CC(C)C)NC(=O)[C@H](CC(C)C)NC(=O)OCc1ccccc1
Outline: as §1

pinometostat = compound: CC(C)N(C[C@H]1O[C@@H](n2cnc3c(N)ncnc32)[C@H](O)[C@@H]1O)[C@H]1C[C@@H](CCc2nc3cc(C(C)(C)C)ccc3[nH]2)C1 [pinometostat]
Outline: as §1

[14] = compound: CC1=C(C2=C(C=C1)C(=O)C3=CC=CC=C3N2CCCN)C
Outline: as §1

[15] = compound: CC1=C(C(CC(=O)N1)C2=CC=C(C=C2)C(F)(F)F)C(=O)NC3=C(C=C4C(=C3)C=NN4)F
Outline: as §1

Measured: log2 fold change

TEX30 (UniProt Q5JUR7)
inactive: erlotinib 0.183 | [1] 0.165 | [2] -0.011 | [3] -0.013 | [4] 0.188 | [5] 0.025 | [6] -0.01 | [7] 0.046 | [8] -0.147 | [9] -0.029 | IRAK-1-4 Inhibitor I -0.013 | ibrutinib 0.08 | [10] -0.048 | ralimetinib 0.053 | [11] -0.251 | [12] -0.075 | [13] 0.03 | pinometostat 0.105 | [14] 0.028

TCOF1 isoform 4 (UniProt Q13428)
inactive: erlotinib 0.035 | [1] -0.005 | [2] -0.005 | [3] -0.008 | [4] -0.002 | [5] 0.014 | [6] -0.024 | [7] -0.001 | [8] -0.043 | [9] -0.107 | IRAK-1-4 Inhibitor I -0.009 | ibrutinib -0.034 | [10] -0.13 | ralimetinib 0.028 | [11] 0.023 | [12] -0.042 | [13] -0.083 | pinometostat 0.024
active: [14] -0.664

TBC1D9B (UniProt Q66K14)
inactive: erlotinib 0.07 | [1] 0.001 | [2] -0.087 | [3] 0.072 | [4] 0.151 | [5] -0.092 | [6] -0.011 | [7] 0.021 | [8] -0.055 | [9] -0.058 | IRAK-1-4 Inhibitor I 0.038 | ibrutinib 0.079 | [10] -0.075 | ralimetinib 0.071 | [11] 0.103 | [12] -0.133 | [13] 0.032 | pinometostat 0.051 | [14] -0.042

TFPI (UniProt P10646)
inactive: erlotinib 0.275 | [2] 0.064 | [3] 0.01 | [5] -0.054 | [6] -0.043 | [8] 0.078 | [9] 0.058 | IRAK-1-4 Inhibitor I -0.13 | ibrutinib 0.084 | ralimetinib -0.112 | [11] 0.094 | [12] -0.029 | [13] 0.263 | pinometostat 0.013 | [15] -0.208 | [14] -0.078

TGFBI (UniProt Q15582)
inactive: erlotinib 0.003 | [1] -0.018 | [2] 0.054 | [3] 0.009 | [4] 0.132 | [5] 0.034 | [6] 0.009 | [7] -0.133 | [8] -0.037 | [9] 0.029 | IRAK-1-4 Inhibitor I 0.026 | ibrutinib 0.149 | [10] 0.045 | ralimetinib -0.099 | [11] 0.244 | [12] -0.044 | [13] 0.05 | pinometostat -0.092 | [14] -0.039

THTPA (UniProt Q9BU02)
inactive: erlotinib 0.08 | [1] -0.054 | [3] 0.167 | [4] 0.003 | [5] 0.046 | [6] 0.128 | [7] 0.075 | [8] 0.052 | [9] -0.029 | ibrutinib -0.119 | [10] 0.153 | ralimetinib 0.031 | [12] -0.233 | [13] -0.072 | [14] -0.049

TBC1D14 (UniProt Q9P2M4)
inactive: erlotinib -0.317 | [1] 0.134 | [2] -0.07 | [3] 0.1 | [4] 0.188 | [6] -0.147 | [7] -0.113 | [8] -0.08 | [9] -0.016 | [10] -0.193 | ralimetinib -0.071 | [11] -0.123 | [12] -0.215 | [13] 0.352 | [14] 0.075

TFE3 (UniProt P19532)
inactive: erlotinib 0.079 | [2] 0.053 | [3] 0.216 | [5] 0.071 | [6] -0.075 | [8] 0.017 | [9] -0.219 | IRAK-1-4 Inhibitor I -0.053 | ibrutinib 0.02 | ralimetinib 0 | [11] -0.051 | [12] -0.325 | [13] 0.004 | pinometostat 0.03 | [14] -0.03

TBC1D20 isoform 3 (UniProt Q96BZ9)
inactive: erlotinib 0.022 | [1] 0.195 | [2] 0.094 | [3] 0.083 | [4] 0.047 | [5] -0.015 | [6] -0.048 | [7] -0.048 | IRAK-1-4 Inhibitor I 0.02 | ibrutinib 0.004 | [10] -0.124 | ralimetinib -0.104 | [11] -0.087 | [12] -0.099 | [13] -0.017 | pinometostat 0
